Source: paper doi:10.1101/828426
No constants are given. Whether binding was seen depends on the method and setting. In cells and extracts the contact can be indirect. Here binding means that the protein was enriched with, or labelled near, the bait; the list need not be complete. For some of these results: No binding means not detected with the bait. Tags and fused reporters may be left off the sequences shown.

Amino acid sequences for entries named in this document (tags omitted).
UniProt Q7TPH6: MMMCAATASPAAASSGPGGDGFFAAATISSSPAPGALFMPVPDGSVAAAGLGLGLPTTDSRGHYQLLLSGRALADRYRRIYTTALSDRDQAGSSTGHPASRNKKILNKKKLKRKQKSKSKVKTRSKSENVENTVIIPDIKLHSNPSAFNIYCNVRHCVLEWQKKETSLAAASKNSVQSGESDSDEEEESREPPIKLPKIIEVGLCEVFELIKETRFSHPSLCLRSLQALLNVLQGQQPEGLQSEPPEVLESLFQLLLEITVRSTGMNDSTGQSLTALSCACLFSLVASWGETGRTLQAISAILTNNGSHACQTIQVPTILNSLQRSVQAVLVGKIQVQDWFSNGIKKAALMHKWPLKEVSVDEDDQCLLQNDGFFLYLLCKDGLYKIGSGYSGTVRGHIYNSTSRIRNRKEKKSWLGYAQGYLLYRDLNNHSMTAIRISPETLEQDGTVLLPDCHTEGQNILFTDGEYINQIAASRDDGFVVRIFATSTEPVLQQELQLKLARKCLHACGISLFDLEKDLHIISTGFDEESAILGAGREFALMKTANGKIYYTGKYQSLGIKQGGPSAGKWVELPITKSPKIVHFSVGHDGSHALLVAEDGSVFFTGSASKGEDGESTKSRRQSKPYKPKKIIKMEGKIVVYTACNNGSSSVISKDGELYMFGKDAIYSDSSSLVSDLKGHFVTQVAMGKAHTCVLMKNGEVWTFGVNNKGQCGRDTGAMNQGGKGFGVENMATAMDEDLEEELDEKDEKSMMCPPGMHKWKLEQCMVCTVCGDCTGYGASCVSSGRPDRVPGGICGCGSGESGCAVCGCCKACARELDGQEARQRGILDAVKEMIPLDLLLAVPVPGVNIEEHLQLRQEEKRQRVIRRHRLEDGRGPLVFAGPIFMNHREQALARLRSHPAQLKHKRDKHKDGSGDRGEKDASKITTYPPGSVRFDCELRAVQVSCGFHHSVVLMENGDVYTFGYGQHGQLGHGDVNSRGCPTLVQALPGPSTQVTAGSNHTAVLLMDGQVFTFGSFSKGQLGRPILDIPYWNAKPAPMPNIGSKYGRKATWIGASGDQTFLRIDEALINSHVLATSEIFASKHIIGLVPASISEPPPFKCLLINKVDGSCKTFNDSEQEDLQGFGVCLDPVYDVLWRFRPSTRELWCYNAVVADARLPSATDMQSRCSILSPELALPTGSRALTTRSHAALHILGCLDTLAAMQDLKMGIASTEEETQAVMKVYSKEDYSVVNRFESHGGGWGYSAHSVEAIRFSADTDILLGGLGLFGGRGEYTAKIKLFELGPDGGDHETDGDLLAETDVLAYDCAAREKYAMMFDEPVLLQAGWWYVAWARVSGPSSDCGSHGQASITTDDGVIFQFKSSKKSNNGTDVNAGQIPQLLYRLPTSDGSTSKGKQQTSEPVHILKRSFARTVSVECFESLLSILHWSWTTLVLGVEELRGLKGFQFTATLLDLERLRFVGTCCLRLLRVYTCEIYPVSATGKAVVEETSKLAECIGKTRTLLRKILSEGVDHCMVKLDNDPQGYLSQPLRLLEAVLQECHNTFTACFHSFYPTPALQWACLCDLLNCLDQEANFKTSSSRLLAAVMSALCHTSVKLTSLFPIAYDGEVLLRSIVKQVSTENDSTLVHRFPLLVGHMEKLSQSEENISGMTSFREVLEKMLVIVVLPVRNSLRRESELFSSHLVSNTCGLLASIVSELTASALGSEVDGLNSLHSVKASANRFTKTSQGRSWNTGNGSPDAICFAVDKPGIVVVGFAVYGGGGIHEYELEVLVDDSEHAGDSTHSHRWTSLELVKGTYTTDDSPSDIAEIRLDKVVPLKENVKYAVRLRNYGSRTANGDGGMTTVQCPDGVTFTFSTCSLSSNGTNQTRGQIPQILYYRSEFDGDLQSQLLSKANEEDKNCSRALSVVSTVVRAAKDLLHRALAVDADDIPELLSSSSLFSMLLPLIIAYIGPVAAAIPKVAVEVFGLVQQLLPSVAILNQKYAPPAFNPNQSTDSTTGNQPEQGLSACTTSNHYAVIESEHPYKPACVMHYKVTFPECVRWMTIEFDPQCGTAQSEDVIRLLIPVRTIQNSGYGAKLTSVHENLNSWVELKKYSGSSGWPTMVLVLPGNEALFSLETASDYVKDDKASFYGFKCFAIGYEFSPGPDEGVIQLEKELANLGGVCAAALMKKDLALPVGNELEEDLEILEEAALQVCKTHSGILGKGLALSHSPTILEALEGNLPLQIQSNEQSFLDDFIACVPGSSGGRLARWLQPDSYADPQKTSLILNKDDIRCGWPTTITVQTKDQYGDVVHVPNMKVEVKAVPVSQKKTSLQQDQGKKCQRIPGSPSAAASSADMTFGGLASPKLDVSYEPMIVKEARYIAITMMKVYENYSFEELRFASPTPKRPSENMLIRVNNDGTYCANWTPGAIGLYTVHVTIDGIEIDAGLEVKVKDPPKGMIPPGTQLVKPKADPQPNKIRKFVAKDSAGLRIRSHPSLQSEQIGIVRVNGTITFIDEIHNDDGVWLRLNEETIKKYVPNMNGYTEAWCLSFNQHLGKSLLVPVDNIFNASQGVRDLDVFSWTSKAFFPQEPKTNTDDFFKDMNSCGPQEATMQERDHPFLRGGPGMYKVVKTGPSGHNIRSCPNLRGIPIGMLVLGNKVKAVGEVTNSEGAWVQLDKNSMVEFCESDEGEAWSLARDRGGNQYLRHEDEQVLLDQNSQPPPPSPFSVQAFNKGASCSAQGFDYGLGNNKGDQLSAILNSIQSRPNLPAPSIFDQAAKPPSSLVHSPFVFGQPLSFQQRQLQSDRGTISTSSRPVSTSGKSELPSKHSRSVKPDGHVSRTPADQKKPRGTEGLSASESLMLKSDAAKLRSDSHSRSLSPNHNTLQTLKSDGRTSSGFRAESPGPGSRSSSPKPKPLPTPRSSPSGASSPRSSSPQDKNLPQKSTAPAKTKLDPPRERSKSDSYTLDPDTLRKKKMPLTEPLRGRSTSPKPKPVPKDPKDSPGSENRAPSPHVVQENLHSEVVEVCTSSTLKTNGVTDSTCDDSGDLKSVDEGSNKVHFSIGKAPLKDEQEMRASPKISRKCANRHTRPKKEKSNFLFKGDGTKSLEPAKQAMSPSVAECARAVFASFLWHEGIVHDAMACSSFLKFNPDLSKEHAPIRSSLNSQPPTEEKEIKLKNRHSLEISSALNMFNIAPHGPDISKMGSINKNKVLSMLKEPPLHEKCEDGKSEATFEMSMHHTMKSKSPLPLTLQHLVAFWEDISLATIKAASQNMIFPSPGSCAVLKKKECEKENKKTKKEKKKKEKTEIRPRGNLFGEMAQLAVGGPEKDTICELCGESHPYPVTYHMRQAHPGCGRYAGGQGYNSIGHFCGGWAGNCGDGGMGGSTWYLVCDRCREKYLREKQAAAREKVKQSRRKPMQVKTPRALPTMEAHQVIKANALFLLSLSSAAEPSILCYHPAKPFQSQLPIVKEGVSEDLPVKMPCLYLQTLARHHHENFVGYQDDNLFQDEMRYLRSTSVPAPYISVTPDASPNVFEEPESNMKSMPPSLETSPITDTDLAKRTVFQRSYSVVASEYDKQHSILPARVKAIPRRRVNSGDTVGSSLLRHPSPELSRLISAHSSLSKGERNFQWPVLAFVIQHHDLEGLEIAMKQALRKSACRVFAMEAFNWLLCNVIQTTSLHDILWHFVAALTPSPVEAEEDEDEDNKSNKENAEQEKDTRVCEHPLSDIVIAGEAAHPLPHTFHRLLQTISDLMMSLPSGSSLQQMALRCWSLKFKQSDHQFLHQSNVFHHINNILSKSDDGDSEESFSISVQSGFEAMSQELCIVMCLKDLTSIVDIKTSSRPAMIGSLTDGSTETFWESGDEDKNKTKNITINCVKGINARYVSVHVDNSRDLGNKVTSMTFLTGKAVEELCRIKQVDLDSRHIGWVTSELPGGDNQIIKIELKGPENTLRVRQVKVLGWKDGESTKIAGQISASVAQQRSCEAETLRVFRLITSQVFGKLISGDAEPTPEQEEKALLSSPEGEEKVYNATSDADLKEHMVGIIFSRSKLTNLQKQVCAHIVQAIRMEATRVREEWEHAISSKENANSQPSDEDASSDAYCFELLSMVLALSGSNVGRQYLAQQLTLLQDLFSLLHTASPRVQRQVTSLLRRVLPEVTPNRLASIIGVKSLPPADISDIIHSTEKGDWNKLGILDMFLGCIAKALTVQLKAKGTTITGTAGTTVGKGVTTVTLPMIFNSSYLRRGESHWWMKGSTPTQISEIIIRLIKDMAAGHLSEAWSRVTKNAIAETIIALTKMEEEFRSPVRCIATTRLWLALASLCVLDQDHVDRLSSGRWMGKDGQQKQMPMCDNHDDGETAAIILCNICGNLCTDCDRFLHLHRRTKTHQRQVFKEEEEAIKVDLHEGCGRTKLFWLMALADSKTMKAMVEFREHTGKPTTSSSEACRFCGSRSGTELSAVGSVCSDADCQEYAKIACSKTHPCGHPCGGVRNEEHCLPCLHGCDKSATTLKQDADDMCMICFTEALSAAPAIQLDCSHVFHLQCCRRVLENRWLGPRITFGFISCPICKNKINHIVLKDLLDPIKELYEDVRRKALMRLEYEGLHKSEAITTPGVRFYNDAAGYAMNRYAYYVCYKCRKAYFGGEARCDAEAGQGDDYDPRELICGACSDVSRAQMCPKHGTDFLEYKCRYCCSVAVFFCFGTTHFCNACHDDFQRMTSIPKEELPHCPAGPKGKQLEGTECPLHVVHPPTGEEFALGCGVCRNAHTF

T1: ECad-Fc (murine) (UniProt P09803)
T1 sequence: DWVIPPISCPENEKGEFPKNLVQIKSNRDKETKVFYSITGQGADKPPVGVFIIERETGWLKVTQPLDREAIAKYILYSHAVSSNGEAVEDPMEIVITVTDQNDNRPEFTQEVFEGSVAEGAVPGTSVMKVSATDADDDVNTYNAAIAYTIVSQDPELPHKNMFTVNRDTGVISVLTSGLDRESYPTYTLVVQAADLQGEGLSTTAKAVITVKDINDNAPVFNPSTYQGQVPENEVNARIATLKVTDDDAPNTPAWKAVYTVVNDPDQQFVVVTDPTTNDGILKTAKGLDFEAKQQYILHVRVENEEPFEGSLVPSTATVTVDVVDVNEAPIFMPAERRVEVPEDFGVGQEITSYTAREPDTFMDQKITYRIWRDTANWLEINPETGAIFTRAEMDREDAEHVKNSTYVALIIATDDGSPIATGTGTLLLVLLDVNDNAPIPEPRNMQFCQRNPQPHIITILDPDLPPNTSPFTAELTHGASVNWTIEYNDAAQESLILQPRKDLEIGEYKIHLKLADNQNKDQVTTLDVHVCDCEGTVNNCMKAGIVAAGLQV

T2: NCad^W161A-Fc (murine) (UniProt P15116)
T2 sequence: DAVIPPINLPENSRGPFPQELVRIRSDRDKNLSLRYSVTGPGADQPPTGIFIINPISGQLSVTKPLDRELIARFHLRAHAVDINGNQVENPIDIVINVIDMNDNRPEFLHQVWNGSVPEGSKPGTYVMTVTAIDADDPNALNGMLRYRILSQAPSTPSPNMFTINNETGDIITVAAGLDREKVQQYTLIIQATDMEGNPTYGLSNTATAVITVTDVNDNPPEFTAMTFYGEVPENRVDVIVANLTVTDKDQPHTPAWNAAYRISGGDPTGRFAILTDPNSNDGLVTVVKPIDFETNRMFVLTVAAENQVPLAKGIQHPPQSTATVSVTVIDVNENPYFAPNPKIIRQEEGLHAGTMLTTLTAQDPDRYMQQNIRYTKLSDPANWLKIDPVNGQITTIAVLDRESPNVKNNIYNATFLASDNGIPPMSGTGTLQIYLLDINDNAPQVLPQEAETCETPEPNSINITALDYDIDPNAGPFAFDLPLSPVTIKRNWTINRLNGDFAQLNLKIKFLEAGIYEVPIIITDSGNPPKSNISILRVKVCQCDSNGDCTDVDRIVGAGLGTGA

B1: Fbxo45 (mouse embryonic brain) (protein, UniProt Q8K3B1 1-286)
chain: MAAPGPGAGAASGGASGGGAGAGGGASAGSGSSGVGGRLPSRVLELVFSYLELSELRSCALVCKHWYRCLHGDENSEVWRSLCARSLAEEALRTDILCNLPSYKAKVRAFQHAFSTNDCSRNVYIKKNGFTLHRNPIAQSTDGARTKIGFSEGRHAWEVWWEGPLGTVAVIGIATKRAPMQCQGYVALLGSDDQSWGWNLVDNNLLHNGEVNGSFPQCNNAPKYQIGERIRVILDMEDKTLAFERGYEFLGVAFRGLPKACLYPAVSAVYGNTEVTLVYLGKPLDG

Tests used:
ECad-Fc (murine) = target: T1, ECad-Fc (murine); test: affinity purification with mass spectrometry
NCad^W161A-Fc (murine) = target: T2, NCad^W161A-Fc (murine); test: affinity purification with mass spectrometry

Molecule | binding (ECad-Fc (murine)) | binding (NCad^W161A-Fc (murine))
MycBP2 (mouse embryonic brain) (from UniProt Q7TPH6 1-4749) | no binding | binds
B1 | no binding | binds
